The text below walks through data of paper PMC8799735.

Chains of the proteins cited; added tags and fusions are not shown. Residues count along the entry.
UniProt Q00266: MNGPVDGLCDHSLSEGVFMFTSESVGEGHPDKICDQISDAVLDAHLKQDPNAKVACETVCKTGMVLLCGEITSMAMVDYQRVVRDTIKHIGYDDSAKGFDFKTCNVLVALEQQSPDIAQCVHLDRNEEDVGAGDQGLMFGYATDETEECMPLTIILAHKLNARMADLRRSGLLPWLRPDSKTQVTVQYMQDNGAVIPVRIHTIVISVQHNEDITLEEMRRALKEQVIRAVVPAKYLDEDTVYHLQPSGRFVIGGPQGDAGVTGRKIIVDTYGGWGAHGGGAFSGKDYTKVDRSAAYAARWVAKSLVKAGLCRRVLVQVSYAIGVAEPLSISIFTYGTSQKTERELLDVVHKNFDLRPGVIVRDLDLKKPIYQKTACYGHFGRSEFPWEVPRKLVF
UniProt P31040, residues 43-664: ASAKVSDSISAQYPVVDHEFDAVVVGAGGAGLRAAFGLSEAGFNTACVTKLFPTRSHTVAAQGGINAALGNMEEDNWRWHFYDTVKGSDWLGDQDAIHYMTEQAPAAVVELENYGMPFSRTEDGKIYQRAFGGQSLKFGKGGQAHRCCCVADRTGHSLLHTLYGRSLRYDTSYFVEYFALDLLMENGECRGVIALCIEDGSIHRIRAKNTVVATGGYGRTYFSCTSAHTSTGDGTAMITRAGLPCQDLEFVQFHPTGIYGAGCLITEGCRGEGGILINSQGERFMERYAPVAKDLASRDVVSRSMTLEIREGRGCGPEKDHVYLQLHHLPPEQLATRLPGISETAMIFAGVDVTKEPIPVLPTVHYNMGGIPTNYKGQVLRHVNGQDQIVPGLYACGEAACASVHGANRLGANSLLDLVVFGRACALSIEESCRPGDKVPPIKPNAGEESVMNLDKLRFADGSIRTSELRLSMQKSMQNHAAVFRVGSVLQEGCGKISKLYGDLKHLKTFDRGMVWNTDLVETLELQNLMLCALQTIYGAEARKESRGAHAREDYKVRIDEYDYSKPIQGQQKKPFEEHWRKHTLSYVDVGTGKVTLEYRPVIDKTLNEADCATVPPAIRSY

No constants are given. Whether binding was seen depends on the method and setting. Binding seen in cells or lysates may run through a third protein. These calls come from enrichment with a bait or labelling near it, and not all partners need be listed.

The target of the assay is Methionine adenosyltransferase α1 (MATα1), endogenous human (human (endogenous in human hepatocytes and liver)) (UniProt Q00266). Nature of the assay: affinity purification with mass spectrometry; normal human liver lysates (1000 μg), IP with anti-MATα1 antibody, on-bead trypsin/Lys-C digestion, DIA-MS.

With “SDHα, endogenous human (from UniProt P31040 43-664)”, the binding entry is on record as “binds”.
